According to paper doi:10.1101/2020.09.07.286526:
Results are given in words; binding and its absence hold for the method and conditions named. In cells and extracts the contact can be indirect. Some results given as binding are weak or reduced against the parent protein; the word gives no strength.

Protein sequences, listed by entry. Tags and fused reporters are not part of them. Residues count along the entry.
UniProt Q9NXA8, residues 37-310: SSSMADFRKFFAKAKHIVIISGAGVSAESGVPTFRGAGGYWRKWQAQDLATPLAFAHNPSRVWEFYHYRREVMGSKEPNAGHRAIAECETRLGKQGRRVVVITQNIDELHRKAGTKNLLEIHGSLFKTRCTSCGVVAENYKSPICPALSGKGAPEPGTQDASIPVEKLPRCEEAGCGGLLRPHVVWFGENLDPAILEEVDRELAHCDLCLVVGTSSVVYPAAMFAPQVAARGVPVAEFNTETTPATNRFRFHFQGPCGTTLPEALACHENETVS

Biological target: Sirtuin 5 (SIRT5) (human (endogenous in A2058)) (UniProt Q9NXA8)
Experiment: co-IP

- binding: binds
B1: MTHFD1L (methylenetetrahydrofolate dehydrogenase (NADP+ dependent) 1 like) (enzyme, UniProt Q6UB35 32-978)
chain: SSGGGGGGGGGREGLLGQRRPQDGQARSSCSPGGRTPAARDSIVREVIQNSKEVLSLLQEKNPAFKPVLAIIQAGDDNLMQEINQNLAEEAGLNITHICLPPDSSEAEIIDEILKINEDTRVHGLALQISENLFSNKVLNALKPEKDVDGVTDINLGKLVRGDAHECFVSPVAKAVIELLEKSGVNLDGKKILVVGAHGSLEAALQCLFQRKGSMTMSIQWKTRQLQSKLHEADIVVLGSPKPEEIPLTWIQPGTTVLNCSHDFLSGKVGCGSPRIHFGGLIEEDDVILLAAALRIQNMVSSGRRWLREQQHRRWRLHCLKLQPLSPVPSDIEISRGQTPKAVDVLAKEIGLLADEIEIYGKSKAKVRLSVLERLKDQADGKYVLVAGITPTPLGEGKSTVTIGLVQALTAHLNVNSFACLRQPSQGPTFGVKGGAAGGGYAQVIPMEEFNLHLTGDIHAITAANNLLAAAIDTRILHENTQTDKALYNRLVPLVNGVREFSEIQLARLKKLGINKTDPSTLTEEEVSKFARLDIDPSTITWQRVLDTNDRFLRKITIGQGNTEKGHYRQAQFDIAVASEIMAVLALTDSLADMKARLGRMVVASDKSGQPVTADDLGVTGALTVLMKDAIKPNLMQTLEGTPVFVHAGPFANIAHGNSSVLADKIALKLVGEEGFVVTEAGFGADIGMEKFFNIKCRASGLVPNVVVLVATVRALKMHGGGPSVTAGVPLKKEYTEENIQLVADGCCNLQKQIQITQLFGVPVVVALNVFKTDTRAEIDLVCELAKRAGAFDAVPCYHWSVGGKGSVDLARAVREAASKRSRFQFLYDVQVPIVDKIRTIAQAVYGAKDIELSPEAQAKIDRYTQQGFGNLPICMAKTHLSLSHQPDKKGVPRDFILPISDVRASIGAGFIYPLVGTMSTMPGLPTRPCFYDIDLDTETEQVKGLF
